Consider one substance from paper PMC9450262.

Sequences of proteins named here, by UniProt entry; tags and fusion partners are left off.
UniProt Q80SY4: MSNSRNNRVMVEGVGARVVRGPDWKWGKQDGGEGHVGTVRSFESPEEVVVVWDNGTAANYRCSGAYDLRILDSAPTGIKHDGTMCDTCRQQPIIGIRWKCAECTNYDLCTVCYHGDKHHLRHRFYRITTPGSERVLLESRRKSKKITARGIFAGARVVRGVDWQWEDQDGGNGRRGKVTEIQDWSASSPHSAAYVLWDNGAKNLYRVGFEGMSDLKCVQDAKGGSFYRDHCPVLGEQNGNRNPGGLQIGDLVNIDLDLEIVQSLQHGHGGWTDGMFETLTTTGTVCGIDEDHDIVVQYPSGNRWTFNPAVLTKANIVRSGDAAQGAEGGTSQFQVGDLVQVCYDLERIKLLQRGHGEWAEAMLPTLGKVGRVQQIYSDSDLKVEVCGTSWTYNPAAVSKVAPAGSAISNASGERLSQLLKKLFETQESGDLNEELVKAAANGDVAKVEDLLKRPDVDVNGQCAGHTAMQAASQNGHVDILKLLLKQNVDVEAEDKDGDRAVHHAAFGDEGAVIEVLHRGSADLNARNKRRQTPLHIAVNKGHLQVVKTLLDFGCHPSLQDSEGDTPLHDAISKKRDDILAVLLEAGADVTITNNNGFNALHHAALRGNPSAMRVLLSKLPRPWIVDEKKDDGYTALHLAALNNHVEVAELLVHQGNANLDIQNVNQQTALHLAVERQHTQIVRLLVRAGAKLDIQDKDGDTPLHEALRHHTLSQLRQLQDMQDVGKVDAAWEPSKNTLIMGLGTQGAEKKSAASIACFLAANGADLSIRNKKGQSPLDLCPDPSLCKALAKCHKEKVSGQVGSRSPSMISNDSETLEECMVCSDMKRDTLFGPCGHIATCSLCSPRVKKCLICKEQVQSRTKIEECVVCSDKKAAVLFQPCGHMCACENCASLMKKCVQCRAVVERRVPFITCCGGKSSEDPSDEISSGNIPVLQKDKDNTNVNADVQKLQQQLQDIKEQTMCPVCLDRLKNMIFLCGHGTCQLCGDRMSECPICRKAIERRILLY

Results are given in words; binding and its absence hold for the method and conditions named. In cells and extracts the contact can be indirect. These calls come from enrichment with a bait or labelling near it, and not all partners need be listed.

The experiment deals with T1, Acid ceramidase (ASAH1) (mouse (endogenous in primary pancreatic acinar cells of C57BL/6 mice)) (UniProt Q9WV54).
T1 sequence: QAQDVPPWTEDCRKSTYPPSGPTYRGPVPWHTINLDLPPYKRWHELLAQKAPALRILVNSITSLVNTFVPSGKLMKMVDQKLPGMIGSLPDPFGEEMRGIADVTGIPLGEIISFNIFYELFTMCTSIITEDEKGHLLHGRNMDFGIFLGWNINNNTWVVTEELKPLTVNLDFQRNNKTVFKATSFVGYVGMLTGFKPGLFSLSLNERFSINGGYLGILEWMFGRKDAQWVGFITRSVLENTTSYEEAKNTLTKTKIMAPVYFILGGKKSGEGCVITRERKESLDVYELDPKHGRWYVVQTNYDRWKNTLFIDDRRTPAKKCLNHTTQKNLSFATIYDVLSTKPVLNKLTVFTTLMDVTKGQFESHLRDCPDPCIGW
As to the kind of experiment: affinity purification with mass spectrometry; lysate of primary pancreatic acinar cells (saline or 200 nM cerulein plus 10 ng/mL LPS, 6 h) precipitated with anti-ASAH1 antibody; SDS-PAGE, Coomassie stain; band present in the saline sample cut out and examined by mass spectrometry (n = 1).

As to “E3 ligase Mind bomb homolog 1 (MIB1) (from UniProt Q80SY4 1-1006) (enzyme)”, the binding entry is reported as “binds”.
